According to patent US20200138825A1, “METHOD OF TREATING MALIGNANT RHABDOID TUMOR OF THE OVARY (MRTO)/SMALL CELL CANCER OF THE OVARY OF THE HYPERCALCEMIC TYPE(SCCOHT) WITH AN EZH2 INHIBITOR” (Epizyme, Inc., priority 2015, published 2020):

Tested on: ovarian cell lines
Experiment: cells

Compound `CCN(c1cc(-c2ccc(CN3CCOCC3)cc2)cc(C(=O)NCc2c(C)cc(C)[nH]c2=O)c1C)C1CCOCC1` [tazemetostat] has an IC50 of at least 73 nM.
